# Laboratory results from the supplement of paper PMC12823440, “Inhibitors supercharge kinase turnover through native proteolytic circuits” (Nature, 2025).
# Chains of the proteins cited; added tags and fusions are not shown. Lines headed by an entry give the natural chain unless they say otherwise; changes in a name come on top.
# UniProt P29317, whole entry: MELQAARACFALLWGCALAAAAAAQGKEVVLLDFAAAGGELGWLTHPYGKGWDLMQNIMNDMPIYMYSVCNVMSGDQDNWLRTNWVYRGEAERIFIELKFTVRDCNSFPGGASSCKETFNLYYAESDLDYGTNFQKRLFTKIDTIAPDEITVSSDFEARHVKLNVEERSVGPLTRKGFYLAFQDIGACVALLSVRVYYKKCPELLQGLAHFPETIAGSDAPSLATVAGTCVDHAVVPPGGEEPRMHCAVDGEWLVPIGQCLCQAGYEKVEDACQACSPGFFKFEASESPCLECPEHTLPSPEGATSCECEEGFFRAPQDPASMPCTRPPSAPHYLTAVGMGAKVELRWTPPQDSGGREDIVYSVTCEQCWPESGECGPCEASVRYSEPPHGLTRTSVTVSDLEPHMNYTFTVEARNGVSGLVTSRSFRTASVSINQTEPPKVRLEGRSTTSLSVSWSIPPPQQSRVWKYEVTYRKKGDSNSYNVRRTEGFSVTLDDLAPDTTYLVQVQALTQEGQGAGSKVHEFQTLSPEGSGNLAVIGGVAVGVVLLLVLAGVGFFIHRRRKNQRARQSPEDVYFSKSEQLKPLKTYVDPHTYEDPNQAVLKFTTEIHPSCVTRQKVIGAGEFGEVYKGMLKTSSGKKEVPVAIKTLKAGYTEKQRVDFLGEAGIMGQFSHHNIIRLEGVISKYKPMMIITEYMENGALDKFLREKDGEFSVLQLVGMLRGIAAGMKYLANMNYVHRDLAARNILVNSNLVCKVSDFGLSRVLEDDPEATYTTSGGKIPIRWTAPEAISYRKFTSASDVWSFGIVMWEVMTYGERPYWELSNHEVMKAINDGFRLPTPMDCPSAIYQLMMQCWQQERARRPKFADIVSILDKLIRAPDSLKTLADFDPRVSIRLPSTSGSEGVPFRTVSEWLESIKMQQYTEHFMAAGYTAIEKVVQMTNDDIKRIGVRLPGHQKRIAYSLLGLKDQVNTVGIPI
# UniProt P21860, whole entry: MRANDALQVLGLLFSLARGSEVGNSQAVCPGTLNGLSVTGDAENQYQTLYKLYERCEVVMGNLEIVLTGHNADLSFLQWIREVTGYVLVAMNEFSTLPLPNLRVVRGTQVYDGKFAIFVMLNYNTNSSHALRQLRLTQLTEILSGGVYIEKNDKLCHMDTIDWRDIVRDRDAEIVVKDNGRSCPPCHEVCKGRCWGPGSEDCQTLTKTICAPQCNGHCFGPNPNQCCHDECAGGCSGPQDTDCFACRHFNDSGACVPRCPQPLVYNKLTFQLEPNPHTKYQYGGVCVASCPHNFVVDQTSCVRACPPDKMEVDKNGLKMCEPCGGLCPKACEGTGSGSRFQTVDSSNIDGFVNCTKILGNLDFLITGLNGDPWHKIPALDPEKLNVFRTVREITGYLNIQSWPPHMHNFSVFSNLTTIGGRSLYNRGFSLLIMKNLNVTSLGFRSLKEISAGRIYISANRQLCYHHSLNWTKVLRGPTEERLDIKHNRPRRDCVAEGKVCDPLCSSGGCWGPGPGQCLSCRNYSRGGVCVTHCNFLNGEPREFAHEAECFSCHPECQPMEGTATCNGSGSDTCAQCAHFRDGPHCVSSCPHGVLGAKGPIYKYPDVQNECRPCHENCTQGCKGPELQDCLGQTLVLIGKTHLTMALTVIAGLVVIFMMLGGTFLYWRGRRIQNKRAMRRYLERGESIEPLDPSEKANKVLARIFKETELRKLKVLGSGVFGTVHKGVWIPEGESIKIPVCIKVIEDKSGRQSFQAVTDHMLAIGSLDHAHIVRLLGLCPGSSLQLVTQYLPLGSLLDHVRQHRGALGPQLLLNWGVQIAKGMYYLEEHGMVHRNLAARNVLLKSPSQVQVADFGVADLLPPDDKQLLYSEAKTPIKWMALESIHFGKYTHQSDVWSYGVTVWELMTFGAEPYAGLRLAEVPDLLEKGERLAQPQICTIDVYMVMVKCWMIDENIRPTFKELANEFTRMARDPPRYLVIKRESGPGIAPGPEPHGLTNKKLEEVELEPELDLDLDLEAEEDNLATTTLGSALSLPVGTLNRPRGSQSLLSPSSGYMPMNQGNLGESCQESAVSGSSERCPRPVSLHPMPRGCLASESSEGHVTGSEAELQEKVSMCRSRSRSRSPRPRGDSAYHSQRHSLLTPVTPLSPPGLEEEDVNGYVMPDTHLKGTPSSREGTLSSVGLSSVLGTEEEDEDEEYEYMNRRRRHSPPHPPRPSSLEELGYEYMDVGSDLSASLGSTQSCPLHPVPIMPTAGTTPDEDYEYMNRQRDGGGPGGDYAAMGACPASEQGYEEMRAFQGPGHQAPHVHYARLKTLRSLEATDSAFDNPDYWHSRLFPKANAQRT
# UniProt Q15303, whole entry R711C: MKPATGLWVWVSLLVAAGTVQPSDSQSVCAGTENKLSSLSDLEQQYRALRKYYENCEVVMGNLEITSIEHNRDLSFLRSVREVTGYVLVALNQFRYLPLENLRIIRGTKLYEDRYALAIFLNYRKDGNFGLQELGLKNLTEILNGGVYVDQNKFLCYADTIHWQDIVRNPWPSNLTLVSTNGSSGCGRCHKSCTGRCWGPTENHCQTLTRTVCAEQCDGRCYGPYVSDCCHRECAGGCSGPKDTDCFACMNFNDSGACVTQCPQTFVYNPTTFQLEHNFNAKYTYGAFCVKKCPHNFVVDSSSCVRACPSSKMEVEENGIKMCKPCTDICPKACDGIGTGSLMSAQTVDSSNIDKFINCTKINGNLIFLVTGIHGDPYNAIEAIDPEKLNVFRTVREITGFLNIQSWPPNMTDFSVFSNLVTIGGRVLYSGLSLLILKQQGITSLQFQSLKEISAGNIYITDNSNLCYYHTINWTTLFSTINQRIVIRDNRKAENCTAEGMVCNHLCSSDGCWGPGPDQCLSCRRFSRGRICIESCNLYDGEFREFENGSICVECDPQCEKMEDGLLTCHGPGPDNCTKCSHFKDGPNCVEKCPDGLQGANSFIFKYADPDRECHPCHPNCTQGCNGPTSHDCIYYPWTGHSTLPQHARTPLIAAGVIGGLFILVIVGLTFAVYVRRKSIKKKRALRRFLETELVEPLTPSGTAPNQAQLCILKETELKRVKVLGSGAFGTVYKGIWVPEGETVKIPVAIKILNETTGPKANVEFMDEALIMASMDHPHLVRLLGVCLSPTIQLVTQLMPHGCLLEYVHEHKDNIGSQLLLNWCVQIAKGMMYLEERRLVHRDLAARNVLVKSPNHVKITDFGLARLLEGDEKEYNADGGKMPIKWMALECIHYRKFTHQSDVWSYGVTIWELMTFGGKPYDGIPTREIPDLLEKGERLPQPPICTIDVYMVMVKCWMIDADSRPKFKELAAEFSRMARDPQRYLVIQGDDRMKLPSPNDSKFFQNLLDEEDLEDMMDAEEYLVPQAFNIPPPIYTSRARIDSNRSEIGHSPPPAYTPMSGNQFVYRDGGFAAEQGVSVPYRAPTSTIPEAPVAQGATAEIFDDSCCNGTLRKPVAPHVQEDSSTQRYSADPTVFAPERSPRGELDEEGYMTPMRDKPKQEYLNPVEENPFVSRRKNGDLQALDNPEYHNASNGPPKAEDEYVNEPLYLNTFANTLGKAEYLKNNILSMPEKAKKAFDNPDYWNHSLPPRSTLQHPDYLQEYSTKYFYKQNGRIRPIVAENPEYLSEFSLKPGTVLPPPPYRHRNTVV
# UniProt O75460: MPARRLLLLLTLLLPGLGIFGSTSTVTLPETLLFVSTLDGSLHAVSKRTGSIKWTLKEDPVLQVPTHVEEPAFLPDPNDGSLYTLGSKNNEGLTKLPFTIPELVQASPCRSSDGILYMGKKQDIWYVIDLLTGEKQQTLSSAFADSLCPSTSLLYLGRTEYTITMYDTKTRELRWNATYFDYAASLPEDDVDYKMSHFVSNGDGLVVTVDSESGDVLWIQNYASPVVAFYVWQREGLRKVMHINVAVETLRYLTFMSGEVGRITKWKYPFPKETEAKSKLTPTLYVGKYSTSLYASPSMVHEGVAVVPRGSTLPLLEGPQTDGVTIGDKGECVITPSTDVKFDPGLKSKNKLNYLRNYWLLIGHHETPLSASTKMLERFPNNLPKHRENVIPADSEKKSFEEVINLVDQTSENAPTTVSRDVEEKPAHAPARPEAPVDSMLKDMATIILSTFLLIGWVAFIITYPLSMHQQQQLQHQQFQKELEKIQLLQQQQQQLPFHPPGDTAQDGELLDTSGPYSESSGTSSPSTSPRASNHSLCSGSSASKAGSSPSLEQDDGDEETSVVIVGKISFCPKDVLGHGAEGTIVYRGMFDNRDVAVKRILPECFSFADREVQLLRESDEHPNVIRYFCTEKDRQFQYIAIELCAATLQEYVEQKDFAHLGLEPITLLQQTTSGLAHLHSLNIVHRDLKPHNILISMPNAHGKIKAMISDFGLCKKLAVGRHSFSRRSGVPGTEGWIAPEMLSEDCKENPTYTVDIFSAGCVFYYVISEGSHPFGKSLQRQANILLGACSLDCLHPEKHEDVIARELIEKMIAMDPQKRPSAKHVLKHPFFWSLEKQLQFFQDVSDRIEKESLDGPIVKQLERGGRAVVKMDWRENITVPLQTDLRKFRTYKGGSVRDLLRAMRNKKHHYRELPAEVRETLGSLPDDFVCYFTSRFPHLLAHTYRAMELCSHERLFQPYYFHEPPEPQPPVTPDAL
# UniProt P11362, whole entry, looked up: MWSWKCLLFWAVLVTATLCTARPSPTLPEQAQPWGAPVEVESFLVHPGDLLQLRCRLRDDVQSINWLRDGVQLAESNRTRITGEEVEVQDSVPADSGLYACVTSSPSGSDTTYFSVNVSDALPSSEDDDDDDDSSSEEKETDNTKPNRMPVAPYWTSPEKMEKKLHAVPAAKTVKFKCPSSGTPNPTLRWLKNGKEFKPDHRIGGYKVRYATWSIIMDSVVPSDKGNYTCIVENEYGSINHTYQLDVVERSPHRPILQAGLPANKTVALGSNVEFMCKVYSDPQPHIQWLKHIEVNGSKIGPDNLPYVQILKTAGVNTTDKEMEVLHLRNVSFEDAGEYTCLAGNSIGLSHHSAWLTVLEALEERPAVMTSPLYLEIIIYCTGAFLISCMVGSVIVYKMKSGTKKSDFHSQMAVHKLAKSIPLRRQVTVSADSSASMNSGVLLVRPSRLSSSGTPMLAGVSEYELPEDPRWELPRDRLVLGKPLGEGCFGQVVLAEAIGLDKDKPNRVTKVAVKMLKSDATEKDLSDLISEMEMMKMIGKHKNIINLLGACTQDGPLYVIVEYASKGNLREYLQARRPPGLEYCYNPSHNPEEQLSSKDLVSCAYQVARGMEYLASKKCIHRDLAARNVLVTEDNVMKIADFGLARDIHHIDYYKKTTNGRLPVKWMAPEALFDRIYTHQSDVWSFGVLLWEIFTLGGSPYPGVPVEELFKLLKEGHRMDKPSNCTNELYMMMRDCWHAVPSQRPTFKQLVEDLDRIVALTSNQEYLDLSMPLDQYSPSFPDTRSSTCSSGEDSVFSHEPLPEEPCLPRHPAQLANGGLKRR
# UniProt P22607, whole entry, looked up: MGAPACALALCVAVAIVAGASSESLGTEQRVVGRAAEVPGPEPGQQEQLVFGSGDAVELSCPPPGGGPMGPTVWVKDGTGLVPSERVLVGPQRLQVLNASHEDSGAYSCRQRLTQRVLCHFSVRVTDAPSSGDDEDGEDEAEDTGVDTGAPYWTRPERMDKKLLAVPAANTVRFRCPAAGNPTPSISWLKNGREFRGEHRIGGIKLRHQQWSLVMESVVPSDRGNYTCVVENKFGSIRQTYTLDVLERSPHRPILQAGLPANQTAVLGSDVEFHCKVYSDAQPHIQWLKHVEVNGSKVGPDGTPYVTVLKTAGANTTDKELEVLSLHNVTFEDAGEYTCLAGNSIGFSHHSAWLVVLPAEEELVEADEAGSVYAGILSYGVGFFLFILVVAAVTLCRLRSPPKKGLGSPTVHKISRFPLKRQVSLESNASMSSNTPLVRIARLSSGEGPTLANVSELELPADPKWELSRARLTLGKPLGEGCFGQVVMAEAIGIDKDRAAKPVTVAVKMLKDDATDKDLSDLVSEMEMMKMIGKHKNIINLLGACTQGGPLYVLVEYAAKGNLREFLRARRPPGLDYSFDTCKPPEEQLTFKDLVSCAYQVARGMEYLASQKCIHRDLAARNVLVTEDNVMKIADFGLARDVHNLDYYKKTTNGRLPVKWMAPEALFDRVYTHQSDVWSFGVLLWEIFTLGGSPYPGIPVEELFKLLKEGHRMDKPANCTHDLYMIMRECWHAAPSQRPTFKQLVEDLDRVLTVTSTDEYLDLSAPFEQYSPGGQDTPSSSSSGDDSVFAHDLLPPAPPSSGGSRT
# Counter-ions that a name gives are not always drawn. The list shows a part of the results. The calls rarely recur for the same compound in another form.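 In K562 cells expressing nanoluciferase-fused kinases, luminescence was recorded at 4 h intervals between 2 and 18 h, normalized as percent of control with DMSO at 100% and a positive control at 0%. A significant (2 sigma) signal drop marks a time point as decreased. The authors' rule for a hit is not shown and takes in more than the number of time points.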
# Columns and labels:
# Experiment in all cases: number of time points (of 5) at which kinase-Nluc abundance scored as decreased, DMSO-normalised (count); higher = more persistent destabilization
# Conditions in all cases: K562; 2-18 h
# EGFR_L861Q = EGFR_L861Q (UniProt P00533)
# EGFR_T790M = EGFR_T790M (UniProt P00533)
# EPHA2 = EPHA2 (UniProt P29317)
# ERBB3 = ERBB3 (UniProt P21860)
# [1] = target: ERBB4_R711C (clone: ERBB4_mut) (UniProt Q15303)
# ERN1 = ERN1 (UniProt O75460)
# FGFR1 = FGFR1 (UniProt P11362)
# FGFR2 = FGFR2 (UniProt P21802)
# FGFR3 = FGFR3 (UniProt P22607)
# FGR = FGR (UniProt P09769)
SMILES,number of time points (EGFR_L861Q),number of time points (EGFR_T790M),number of time points (EPHA2),number of time points (ERBB3),number of time points [1],number of time points (ERN1),number of time points (FGFR1),number of time points (FGFR2),number of time points (FGFR3),number of time points (FGR)
CCn1c(C(=O)N(C2CC2)C2CC2)cc2c3c(ncn3C)c(Nc3cc(C)n(C)n3)nc21 (10 µM),0,0,0,0,0,0,0,0,0,0
CCn1c(-c2nonc2N)nc2cnc(Oc3cccc(NC(=O)c4ccc(OCCN5CCOCC5)cc4)c3)cc21 (10 µM),0,0,0,0,0,0,0,0,0,0
C/C(=C1/C(=O)Nc2ccc(NC(N)=O)cc21)c1ccc[nH]1 (10 µM),0,0,0,0,4,0,0,0,0,0
COCCOc1ccc(-c2cn(-c3ccccc3)c3nc[nH]c(=O)c23)cc1 (10 µM),0,0,0,0,0,0,0,0,0,0
C[C@]1(O)CCC[C@@H]1n1c(=O)c(C(F)F)cc2cnc(NC3CCN(S(C)(=O)=O)CC3)nc21 (10 µM),0,0,0,0,0,0,0,0,0,0
COc1ccc(C(=C2C(=O)Nc3ccccc32)c2ccc(OC)cc2)cc1 (10 µM),0,0,0,0,0,0,0,0,0,0
c1cc2c(cc1O[C@H]1OC[C@H]3[C@@H]1CO[C@@H]3c1ccc3c(c1)OCO3)OCO2 [Sesamolin] (10 µM),0,0,0,0,0,0,0,0,0,0
COc1ccc2c(c1O)OC(C)(C)c1c-2ccc2c1C(=O)N(c1ccc(C(=O)c3ccccc3)cc1)C2=O [Ampkinone] (10 µM),0,0,0,0,0,0,0,0,0,0
O=C(Nc1cc(Oc2cc(F)c(NC(=O)C3(C(=O)Nc4ccc(F)cc4)CC3)cc2F)ccn1)C1CC1 [Altiratinib] (10 µM),0,0,0,0,0,0,0,0,0,0
C=C(C)C(=O)Nc1cccc(-c2ncnc3[nH]cc(C(=O)OCC)c23)c1 (10 µM),0,0,0,0,0,0,0,0,0,0
OC(COc1ccc(C(F)(F)F)cc1)CN(Cc1ccccc1)Cc1ccccc1 (stereo not given) (2.5 µM),0,0,0,0,0,0,0,0,0,0
Fc1ccc(-c2nc(-c3ccccc3F)[nH]c2-c2ccncc2)cc1 (2.5 µM),0,0,0,0,0,0,0,0,0,0
O=C1NC(=O)/C(=C/c2ccc3c(c2)OC(F)(F)O3)S1 (10 µM),0,0,0,0,0,0,0,0,0,0
COc1ccc2[nH]cc(/C=C3\C(=O)Nc4ccc(NC(=O)CCN5CCCCC5)cc43)c2c1 (2.5 µM),0,0,0,0,0,0,0,0,0,0
CS(=O)(=O)c1ccc(-c2noc(C(F)(F)F)c2-c2ccccc2)cc1 (10 µM),0,0,0,0,0,0,0,0,0,0
CC(C)CN(CC(=O)N1CCN(CC(OCc2ccc3ccccc3c2)c2ccc(Cl)cc2Cl)CC1)CC(C)C (stereo not given) [LYN-1604 (dihydrochloride)] (2.5 µM),0,0,0,0,0,0,0,0,0,0
CCOc1ccc(C(=O)Nc2ncc([N+](=O)[O-])s2)cc1 (10 µM),0,0,0,0,0,0,0,0,0,0
COc1cc(N2CCN(C)CC2)ccc1Nc1ncc2c(n1)N(C1CCC1)C(=O)N(c1c(C)cccc1C)C2 (2.5 µM),0,0,0,0,0,0,0,0,0,0
Cc1c(CN2CCN(C(=O)[C@H](C)O)CC2)sc2c(N3CCOCC3)nc(-c3cnc(N)nc3)nc12 [Apitolisib] (10 µM),0,0,1,0,1,0,2,0,0,0

# Reprinted at random: 2 records from the list, in no set order.
SMILES,number of time points (EGFR_L861Q),number of time points (EGFR_T790M),number of time points (EPHA2),number of time points (ERBB3),number of time points [1],number of time points (ERN1),number of time points (FGFR1),number of time points (FGFR2),number of time points (FGFR3),number of time points (FGR)
COc1ccc2c(c1O)OC(C)(C)c1c-2ccc2c1C(=O)N(c1ccc(C(=O)c3ccccc3)cc1)C2=O [Ampkinone] (10 µM),0,0,0,0,0,0,0,0,0,0
COc1ccc(C(=C2C(=O)Nc3ccccc32)c2ccc(OC)cc2)cc1 (10 µM),0,0,0,0,0,0,0,0,0,0

# Carrying on:

SMILES,number of time points (EGFR_L861Q),number of time points (EGFR_T790M),number of time points (EPHA2),number of time points (ERBB3),number of time points [1],number of time points (ERN1),number of time points (FGFR1),number of time points (FGFR2),number of time points (FGFR3),number of time points (FGR)
CO[C@H]1C[C@@H]2CC[C@@H](C)[C@@](O)(O2)C(=O)C(=O)N2CCCC[C@H]2C(=O)O[C@H]([C@H](C)C[C@@H]2CC[C@@H](O)[C@H](OC)C2)CC(=O)[C@H](C)/C=C(\C)[C@@H](O)[C@@H](OC)C(=O)[C@H](C)C[C@H](C)/C=C/C=C/C=C/1C [Rapamycin] (10 µM),0,0,0,0,0,0,0,0,0,0
COCCO[C@@H]1[C@H](O)[C@@H](CO)O[C@H]1n1cnc2c(=O)[nH]c(N)nc21 [2′-O-(2-Methoxyethyl)guanosine] (10 µM),0,0,0,0,0,0,0,0,0,0
CC(C)c1cnc(-c2cc(Cl)ccc2F)cc1Nc1ccncc1C(=O)NC(CO)CO (2.5 µM),0,0,0,0,0,0,0,0,0,0
Cc1ccc(Oc2nc3cc(-c4ccc5c(ccn5C)c4)c(Cl)cc3[nH]2)cc1C(=O)O (10 µM),0,0,0,0,0,0,0,0,0,0
O=C(CNC(=O)c1ccc(-c2ccccc2)cc1)NC1CCCc2ccccc21 (stereo not given) [TAO Kinase inhibitor 1] (10 µM),0,0,0,0,0,0,0,0,0,0
O=C(/C=C/c1ccc(O)c(O)c1)c1ccc(O[C@@H]2O[C@H](CO)[C@@H](O)[C@H](O)[C@H]2O)c(O)c1O [Marein] (10 µM),0,0,0,0,0,0,0,0,0,0
CNC(=O)Nc1ccc(-c2cc(-c3ccnc(Nc4ccc(C)c(S(=O)(=O)N(C)C)c4)n3)ccn2)cc1 [hSMG-1 inhibitor 11e] (2.5 µM),2,0,0,0,4,0,0,0,0,0
O=C(NC(NC(=S)Nc1ccc(F)c([N+](=O)[O-])c1)C(Cl)(Cl)Cl)C(c1ccccc1)c1ccccc1 (stereo not given) (10 µM),0,0,0,0,0,0,0,0,0,0
CN(C)CCN(Cc1ccc(Cl)cc1)c1ccccn1 [Chloropyramine hydrochloride] (10 µM),0,0,0,0,0,0,0,0,0,0
Fc1ccc(-c2nc(-c3c(F)cccc3F)[nH]c2-c2ccncc2)cc1 (10 µM),0,0,0,0,0,0,0,0,0,0
Nc1ncnc2c1c(-c1ccc(Oc3ccccc3)cc1)nn2C1CCNCC1 [N-piperidine Ibrutinib (hydrochloride)] (10 µM),1,0,0,0,0,0,0,0,0,0
COc1ccc(C2CC(c3ccccc3)=NN2c2ccc(S(N)(=O)=O)cc2)cc1 (stereo not given) (10 µM),0,0,0,0,0,0,0,0,0,0
Nc1ncnc2c1c(-c1ccc(Oc3ccccc3)cc1)nn2C1CCCNC1 (racemic) (2.5 µM),0,0,0,0,0,0,0,0,0,0
COc1ccc([C@H]2c3[nH]c4ccc(Cl)cc4c3CCN2C(=O)Oc2ccc(Cl)cc2)cc1 (2.5 µM),0,0,0,0,0,0,0,0,0,0
CNC(=O)c1ccc(-c2cnc3cnc(C(=O)N(C)c4ccc(Cl)cc4)cn23)cc1 (2.5 µM),0,0,0,0,0,0,0,0,0,0
COc1cc2ncnc(Nc3cccc(Cl)c3)c2cc1OC (10 µM),0,0,0,0,0,0,0,0,0,0
Cc1cc(Nc2nc(N[C@@H](C)c3ccc(F)cc3)c(C#N)cc2F)n[nH]1 (10 µM),0,0,0,5,4,0,0,0,0,0
O=C(Nc1cccnc1)c1cc(C(=O)c2c(F)cccc2Br)c[nH]1 (10 µM),0,0,0,0,0,0,0,0,0,0
